Results are given in words; binding and its absence hold for the method and conditions named. Some results given as binding are weak or reduced against the parent protein; the word gives no strength. Sequences can lack the tags named with a protein.
Biological target: PCDH15_(1EC), protocadherin-15 EC11-CR domains (residues 1-30 and 1145-1462) (Mus musculus) (UniProt Q99PJ1)
Experiment: tandem affinity co-purification (Strep-Tactin, then TALON) + SEC; co-expressed in HEK293 tsa201; lysed in 1% digitonin; Strep-Tactin elution removes free His-tagged PCDH15, TALON removes free strep-tagged LHFPL5; SEC in 20 mM Tris pH 8.0, 150 mM NaCl, 0.07% digitonin

Amino acid sequences for entries named in this document (tags omitted). A change or cut given only in a name is not applied to a line headed by its entry. Chains listed by the source or under a name are the forms on record and can include a tag or linker. Residues count along the entry.
PCDH15_(1EC), protocadherin-15 EC11-CR domains (residues 1-30 and 1145-1462) (Q99PJ1, form named): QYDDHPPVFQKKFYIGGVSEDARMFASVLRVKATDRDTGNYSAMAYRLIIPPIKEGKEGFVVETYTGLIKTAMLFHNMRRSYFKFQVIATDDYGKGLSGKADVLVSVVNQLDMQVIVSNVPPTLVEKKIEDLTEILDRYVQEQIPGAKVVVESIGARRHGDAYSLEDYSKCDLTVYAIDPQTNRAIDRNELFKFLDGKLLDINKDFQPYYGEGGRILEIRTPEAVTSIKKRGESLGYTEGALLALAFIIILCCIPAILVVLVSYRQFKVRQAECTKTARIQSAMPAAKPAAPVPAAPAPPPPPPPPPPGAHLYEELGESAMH

- binding: binds
B1: recombinant lipoma HMGIC fusion partner-like protein 5 (LHFPL5), residues 2-219 (protein, UniProt Q4KL25 2-219)
chain: VKLLPAQEAAKIYHTNYVRNSRAVGVMWGTLTICFSVLVMALFIQPYWIGDSVSTPQAGYFGLFSYCVGNVLSSELICKGGPLDFSSIPSRAFKTAMFFVALAMFLIIGSIICFSLFFVCNTATVYKICAWMQLAAATGLMIGCLVYPDGWDSSEVRRMCGEQTGKYTLGHCTIRWAFMLAILSIGDALILSFLAFVLGYRQDKLLPDDYKADGNEEV

From article PMC13228514
